Patent US9675623B2, “Non-surgical method of treatment for cataract” (THE REGENTS OF THE UNIVERSITY OF MICHIGAN, priority 2012, dated 2017)
For at least one compound, name, drawing or mass did not settle the structure. Some entries repeat one wording, which the source may state once for all of them. Some entries share one result that the patent states for a list of compounds.

Biological target: T1, R120G cryAB (Homo sapiens, UniProt P02511, R120G)
T1 sequence (P02511 1-175 R120G): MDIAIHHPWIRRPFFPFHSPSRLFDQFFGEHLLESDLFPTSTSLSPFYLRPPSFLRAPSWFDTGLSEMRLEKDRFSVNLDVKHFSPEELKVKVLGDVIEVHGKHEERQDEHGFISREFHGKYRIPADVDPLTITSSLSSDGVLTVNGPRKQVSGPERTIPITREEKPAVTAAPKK
Assay: Differential scanning fluorimetry (DSF), shift of apparent Tm
Assay type: binding
Conditions: DSF with R120G cryAB
Procedure: Differential scanning fluorimetry (DSF) was utilized to identify compounds that stabilize cryAB. In DSF experiments, the melting transition (Tm) of the protein target is measured in the presence of potential ligands (Cummings et al., J Biomol Screen 11, 854 (2006). DSF measures thermal unfolding of the target protein via the fluorescence of intrinsic tryptophans, or (more commonly) a dye, such as 1,8-anilinonapthalenesulfonic (bis-ANS) or Sypro Orange. Binding of a ligand adds free energy to the folded state or key intermediates, which limits unfolding and shifts the apparent Tm. These values are used to calculate the unfolding transition. When compounds bind to the target prior to heating, they stabilize against unfolding, shifting the ΔTm. […] (3).

| SMILES | reduction of Tm (focused sterol collection) | ACTIVITY (shift in thermal stability at 100 μM) (100 μM compound) |
| --- | --- | --- |
| C[C@H](CCCC(C)(C)O)[C@H]1CC[C@H]2[C@@H]3CC=C4C[C@@H](O)CC[C@]4(C)[C@H]3CC[C@]12C [5-cholesten-3b,25-diol] | at least 2 °C |  |
| C[C@]12CC[C@@H]3c4ccc(O)cc4CC[C@H]3[C@@H]1CCC2=O [estrone] |  | between +1 °C and −1 °C |
